The target in the assay is human RXFP1 (Homo sapiens, UniProt Q9HBX9). The experiment in a line: hRXFP1 HEK293 cAMP assay (HTRF). Conditions: read-out: cAMP hRXFP1 HEK293 Assay EC50; HEK293 cells stably expressing human RXFP1; 30 min at rt; intracellular cAMP by HTRF. The method, then: RXFP1 Cyclic Adenosine Monophosphate (cAMP) Assays. Human embryonic kidney cells 293 (HEK293) cells and HEK293 cells stably expressing human RXFP1, were cultured in MEM medium supplemented with 10% qualified FBS, and 300 μg/ml hygromycin (Life Technologies). Cells were dissociated and suspended in assay buffer. The assay buffer was HBSS buffer (with calcium and magnesium) containing 20 mM HEPES, 0.05% BSA, and 0.5 mM IBMX. Cells (3000 cells per well, except 1500 cell per well for HEK293 cells stably expressing human RXFP1) were added to 384-well Proxiplates (Perkin-Elmer). Cells were immediately treated with test compounds in DMSO (2% final) at final concentrations in the range of 0.010 nM to 50 μM. Cells were incubated for 30 min at rt. The level of intracellular cAMP was determined using the HTRF HiRange cAMP assay reagent kit (Cisbio) according to manufacturer's instructions. Solutions of cryptate conjugated anti-cAMP and d2 fluorophore-labelled cAMP were made in a supplied lysis buffer separately. […] After a 1 h rt incubation, time-resolved fluorescence intensity was measured using the Envision (Perkin-Elmer) at 400 nm excitation and dual emission at 590 nm and 665 nm. […] The potency and activity of a compound to […] cAMP production was then determined by fitting to a 4-parametric logistic equation from a plot of cAMP level versus compound concentrations. […]
Background: cAMP levels reflect the balance of adenylyl cyclase and phosphodiesterase activity.

Chains of the proteins cited; added tags and fusions are not shown.
UniProt Q9HBX9, whole entry: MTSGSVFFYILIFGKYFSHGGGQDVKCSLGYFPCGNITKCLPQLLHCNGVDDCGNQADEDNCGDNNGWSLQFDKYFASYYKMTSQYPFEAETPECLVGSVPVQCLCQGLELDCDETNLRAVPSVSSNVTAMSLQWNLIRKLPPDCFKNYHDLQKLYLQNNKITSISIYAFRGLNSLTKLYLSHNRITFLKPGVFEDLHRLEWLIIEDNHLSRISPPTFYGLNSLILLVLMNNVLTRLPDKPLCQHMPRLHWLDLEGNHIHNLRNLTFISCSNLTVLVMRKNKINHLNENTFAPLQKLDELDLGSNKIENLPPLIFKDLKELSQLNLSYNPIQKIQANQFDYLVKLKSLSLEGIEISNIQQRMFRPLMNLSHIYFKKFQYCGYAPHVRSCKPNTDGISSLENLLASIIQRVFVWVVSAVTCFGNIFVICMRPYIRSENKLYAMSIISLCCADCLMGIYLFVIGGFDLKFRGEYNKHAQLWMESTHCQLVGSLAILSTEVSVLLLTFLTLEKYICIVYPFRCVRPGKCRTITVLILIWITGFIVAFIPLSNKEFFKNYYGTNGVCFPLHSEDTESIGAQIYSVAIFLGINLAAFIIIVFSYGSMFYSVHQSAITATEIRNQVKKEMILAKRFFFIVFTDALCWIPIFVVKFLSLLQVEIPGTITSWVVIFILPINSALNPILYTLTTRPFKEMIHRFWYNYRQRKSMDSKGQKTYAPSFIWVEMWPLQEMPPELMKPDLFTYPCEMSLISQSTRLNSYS

Structures were worked out from names or drawings and are uncertain.

As a reminder, the EC50 is the midpoint of the concentration-response curve.

On to `COc1ccc(S(=O)(=O)N2CCC(C(=O)O)CC2)cc1C(=O)Nc1c(C(=O)Nc2ccc(F)c(C(F)(F)F)c2)sc2cc(C(F)(F)F)ccc12`, for which the EC50 worked out at 3.58 µM.

These data come from patent US20260265233A1, “BENZOTHIOPHENE DERIVATIVES AS RXFP1 AGONISTS” (BRISTOL-MYERS SQUIBB COMPANY, priority 2021, published 2026).
